# Measured data: PubChem BioAssay AID1259291 (Sanger Institute, 2017)
# Aim: 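Genes needed for HT29 colorectal cancer cell survival or for sensitivity to drugs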 (primary screen)
# Cells: HT29 human colorectal cancer cells
# Knock-down reagent: siRNA pool against human genes
# Treatment: anchor drugs added a day after transfection: BYL719 at 1 µM, cetuximab at 5 µg/ml or trametinib at 10 nM, or DMSO vehicle alone
# Measurement: 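Replicate-averaged viability relative to non-targeting pool, robust z-score based on control wells, plus per-drug synergy score for 1 µM BYL719, 5 µg/ml cetuximab and 10 nM trametinib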
# Scale: robust z-score, knock-down alone and viability, knock-down alone: higher = more viable cells; synergy score with BYL719 and synergy score with cetuximab and synergy score with trametinib: higher = stronger synergistic killing with drug
# Active means: 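a knock-down alone scoring under -3 on robust z-score is called essential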
# Meaning of the calls: active = essential (knock-down alone); inactive = no change alone
# In all, the deposit lists 794 reagents; this is an unselected part. 15 of all reagents (1.9%) count as active. 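Calls rest on knock-down alone; drug synergy scores do not affect them; drugs added a day post-transfection, DMSO vehicle as comparison.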 Entries without a mark were called inactive. Viability is capped at 1. Not given: the amount of reagent, the time to read-out.
The first 5 records, ahead of the listing:
gene,"robust z-score, knock-down alone","viability, knock-down alone (fraction of control)",synergy score with BYL719,synergy score with cetuximab,synergy score with trametinib
DYRK4 (GeneID 8798),0.552,1,0.12,0,0.0654
PDPK1 (GeneID 5170),0.552,1,0.249,0.106,0.0787
PFKFB2 (GeneID 5208),0.529,0.999,0.0717,0.162,0.0957
CDK12 (GeneID 51755),-0.229,0.952,-0.0266,-0.0485,-0.00804
NME5 (GeneID 8382),0.552,1,-0.0471,0.0092,-0.0341

Main list, from the first entry:
gene,"robust z-score, knock-down alone","viability, knock-down alone (fraction of control)",synergy score with BYL719,synergy score with cetuximab,synergy score with trametinib
DYRK4 (GeneID 8798),0.552,1,0.12,0,0.0654
PDPK1 (GeneID 5170),0.552,1,0.249,0.106,0.0787
PFKFB2 (GeneID 5208),0.529,0.999,0.0717,0.162,0.0957
CDK12 (GeneID 51755),-0.229,0.952,-0.0266,-0.0485,-0.00804
NME5 (GeneID 8382),0.552,1,-0.0471,0.0092,-0.0341
ACSL6 (GeneID 23305),0.552,1,-0.0561,0,-0.0322
BRDT (GeneID 676),0.552,1,-0.0686,0.0784,-0.0415
DYRK2 (GeneID 8445),0.552,1,-0.000833,0.0833,0.234
MAST2 (GeneID 23139),-0.209,0.953,0.0848,0.0813,0.123
GNE (GeneID 10020),-0.586,0.929,-0.135,0.0874,-0.0113
LIMK1 (GeneID 3984),-1.13,0.896,0.0959,-0.0408,-0.0545
POLR2B (GeneID 5431),-5.67 (active),0.614,-0.257,-0.144,-0.136
TSSK6 (GeneID 83983),0.552,1,-0.0524,0.0574,0.0773
PIK3C3 (GeneID 5289),0.552,1,-0.0439,0,-0.0325
ITSN1 (GeneID 6453),0.552,1,-0.0482,0,0.000417
PIK3R3 (GeneID 8503),0.107,0.972,-0.0262,0.0616,-0.0616
DCK (GeneID 1633),-1.6,0.866,0.237,0.213,0.0687
CDK15 (GeneID 65061),0.552,1,-0.074,0.0478,0.0812
MYO3B (GeneID 140469),0.552,1,-0.0786,0.0167,0.037
TLK2 (GeneID 11011),-0.0051,0.965,-0.129,-0.0346,-0.0246
MAST1 (GeneID 22983),-0.489,0.935,-0.0673,-0.0647,-0.0026
PIK3C2B (GeneID 5287),0.552,1,0.116,0.00806,-0.00426
RBKS (GeneID 64080),0.552,1,-0.0955,0.0295,-0.0101
IGF1R (GeneID 3480),0.552,1,0.0939,0.0157,0.02
PRKD2 (GeneID 25865),0.411,0.991,0.0589,0.112,-0.136
PBK (GeneID 55872),0.552,1,-0.0428,0,0.00678
PRPS1 (GeneID 5631),-0.331,0.945,0.0672,0.0736,-0.0453
FER (GeneID 2241),-0.443,0.938,-0.119,-0.024,-0.13
KIT (GeneID 3815),0.552,1,-0.0166,0.0355,0.0241
CDK18 (GeneID 5129),-1.93,0.846,-0.0588,0.054,-0.035
RPS6KA1 (GeneID 6195),0.552,1,0.0385,0,-0.0539
THNSL1 (GeneID 79896),0.552,1,-0.13,0,-0.0512
CPNE3 (GeneID 8895),0.46,0.994,-0.162,-0.0058,0.0157
ASPM (GeneID 259266),-0.13,0.958,-0.137,-0.0424,0.0785
PRKACA (GeneID 5566),0.552,1,0.0158,0,0.204
MAPK4 (GeneID 5596),0.552,1,0.0606,0.0669,0.0183
NLK (GeneID 51701),0.552,1,-0.0758,0,0.072
PIP4K2B (GeneID 8396),0.525,0.998,0.0504,-0.00175,0.125
CDK11A (GeneID 728642),0.552,1,-0.0427,0.202,0.0046
ALPK3 (GeneID 57538),0.552,1,0.135,0,0.0579
STK33 (GeneID 65975),-0.53,0.933,0.0736,-0.0155,0.0251
TEC (GeneID 7006),0.552,1,0.0141,0.044,-0.056
FXR1 (GeneID 8087),0.552,1,0.0713,0,-0.0102
RET (GeneID 5979),0.552,1,-0.016,0.000526,0.00402
EPHB4 (GeneID 2050),0.552,1,0.0463,0.0784,0.0478
LRRK1 (GeneID 79705),0.552,1,0.0278,0.145,0.00481
PANK1 (GeneID 53354),0.552,1,0.00874,0.0211,-0.0711
PIP5K1A (GeneID 8394),-2.19,0.83,0.0148,-0.0286,-0.000498
CDKL4 (GeneID 344387),0.552,1,0.00574,0,0.131
PKDCC (GeneID 91461),0.552,1,0.0415,0,0.178
